Source: PMC3348897
These are yes or no findings as the source states them, for the method shown. Some results given as binding are weak or reduced against the parent protein; the word gives no strength.

By UniProt entry, the sequences of proteins in these tests, tags left out.
UniProt P17027: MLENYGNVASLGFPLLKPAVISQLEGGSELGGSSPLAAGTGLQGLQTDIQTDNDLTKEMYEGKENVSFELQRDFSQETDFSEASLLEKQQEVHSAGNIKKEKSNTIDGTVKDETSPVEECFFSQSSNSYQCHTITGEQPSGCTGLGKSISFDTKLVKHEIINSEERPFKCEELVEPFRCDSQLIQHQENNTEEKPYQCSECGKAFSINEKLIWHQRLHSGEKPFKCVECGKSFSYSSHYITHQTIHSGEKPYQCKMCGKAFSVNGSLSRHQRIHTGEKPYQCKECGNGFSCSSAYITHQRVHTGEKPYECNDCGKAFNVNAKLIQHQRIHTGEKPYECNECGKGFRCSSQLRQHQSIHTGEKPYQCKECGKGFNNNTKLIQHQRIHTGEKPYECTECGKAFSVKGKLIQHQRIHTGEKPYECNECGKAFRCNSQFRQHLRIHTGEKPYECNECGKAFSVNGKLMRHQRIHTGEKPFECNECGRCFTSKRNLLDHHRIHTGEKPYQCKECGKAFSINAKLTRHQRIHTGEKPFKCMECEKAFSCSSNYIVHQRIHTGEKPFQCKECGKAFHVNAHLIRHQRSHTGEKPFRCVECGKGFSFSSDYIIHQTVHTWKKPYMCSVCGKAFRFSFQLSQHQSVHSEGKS

Target: T1, acyl-CoA binding protein 6 (ACBD6) (human) (UniProt Q9BR61)
T1 sequence: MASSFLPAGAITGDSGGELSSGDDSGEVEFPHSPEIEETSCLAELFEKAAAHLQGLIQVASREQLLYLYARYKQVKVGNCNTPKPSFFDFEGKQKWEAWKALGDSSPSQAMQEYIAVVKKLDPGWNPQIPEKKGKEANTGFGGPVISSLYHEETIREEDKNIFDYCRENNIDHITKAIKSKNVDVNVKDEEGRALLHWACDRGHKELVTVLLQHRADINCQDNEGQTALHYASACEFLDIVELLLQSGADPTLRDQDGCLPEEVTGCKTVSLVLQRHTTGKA
Assay: two-hybrid; yeast two hybrid system with ACBD6 as bait; unpublished observations, no methods given

With “zinc finger protein ZNF23 (from UniProt P17027 1-643)” the binding was “binds”.
